Experimental data published in PubChem BioAssay AID504834 (National Center for Advancing Translational Sciences (NCATS), 2011).
The whole screen tested about 320,000 compounds, of which about 22,000 (6.9%) were called active. The shares of active, inactive and inconclusive entries below differ from those in the screen. Calls follow the shape of the dose curve; as a rule, active = well fitted inhibition curve with a large enough effect; inconclusive = small, poorly fitted or top-dose-only effect, or another doubt; inactive = no such curve, though single readings can be large or run the other way. Where the call is inconclusive, the potency comes from a doubtful curve fit.
% is scaled to controls: 0 for no effect and ±100 for the full control effect; potency is read from the fitted curve at half-maximal effect.

Test: Primary qHTS for delayed death inhibitors of the malarial parasite plastid, 96 hour incubation
Settings: P. falciparum luciferase reporter growth; series mostly up to 28.7 µM; activity change, negative = inhibition: at the top concentration
Procedure, shortened: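 Luminescence readout: decreased luciferase signal marks inhibited growth of reporter-expressing P. falciparum in infected red cells (2% hematocrit, 0.05% parasitemia final), exposed to compound two generations (96 h, 37 C, 5% CO2).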
With COc1ccc(Cl)cc1NCC(=O)Nc1ccc(OC)c(S(=O)(=O)N2CCCCC2)c1 the Potency was inconclusive: 9.28 µM [inhibitor, single point]. For CCCCNC(=O)c1ccc(CNc2c(N3CCC(C(=O)OCC)CC3)c(=O)c2=O)cc1, the Potency was inconclusive: 18.5 µM [inhibitor, single point]. With O=C(c1n[nH]c2ccccc12)N1CCN(S(=O)(=O)c2ccc3ccccc3c2)CC1 the “activity change, negative = inhibition” value was inactive: 150%. With CC1=NN(c2ccccc2)C(=O)C1C=Nc1ccccc1O (stereo not given) the Potency was inconclusive: 2.33 µM [inhibitor, full curve]. With Cc1cc(OCC(=O)Nc2ccc(S(=O)(=O)NC3=NCCCCC3)cc2)c(C(C)C)cc1Cl the Potency was inconclusive: 11.7 µM [inhibitor, single point]. In the case of CCCOc1ccc(CC2CCC(=O)NC2=O)cc1 (stereo not given), the “activity change, negative = inhibition” value is reported as inactive: -18.3%. For Cn1c(O)c(N=Nc2nc(-c3ccccc3)cs2)c2ccccc21, the “activity change, negative = inhibition” value was inactive: 38.6%. In the case of O=C(NCc1cccs1)C1CCC(=O)N(Cc2cccc(C(F)(F)F)c2)C1 (stereo not given), the Potency is reported as inconclusive: 13.1 µM [inhibitor, partial curve, poor fit]. For CCOCCCNC(=O)Cc1ccc(Br)cc1, the “activity change, negative = inhibition” value was inactive: 3.86%. In the case of CCN(CCCNC(=O)Cn1ncc2c([nH]c3ccc(C)cc32)c1=O)c1ccccc1, the Potency is reported as inconclusive: 18.5 µM [inhibitor, single point]. For CCOc1ccccc1C(=O)Nc1cccc(-c2ccc(N3CCOCC3)nn2)c1, the Potency was active: 9.28 µM. With CN1C(=O)C(=Cc2ccccc2OCCOc2ccc([N+](=O)[O-])cc2)C(=O)N(C)C1=O the Potency was active: 11.7 µM. In the case of CC1CCCN(C(=O)C2CCN(S(=O)(=O)c3ccc4c(c3)CC(C)N4C(=O)C3CC3)CC2)C1 (stereo not given), the “activity change, negative = inhibition” value is reported as inactive: 22.7%. With CC(C)OCC(O)CSc1ccccn1 (stereo not given) the Potency was inconclusive: 18.5 µM [inhibitor, single point]. With O=[N+]([O-])c1ccc(/C([O-])=C(/C(=S)Nc2ccccc2F)[n+]2ccccc2)cc1 the “activity change, negative = inhibition” value was inactive: 0.519%. With CCC(C)(C)c1nnc(NC(=O)c2cccc([N+](=O)[O-])c2)s1 the “activity change, negative = inhibition” value was inactive: 38.1%. In the case of Cc1c(C(=O)N2CCC(n3nccc3NC(=O)C3CC3)CC2)[nH]c2ccc(Cl)cc12, the Potency is reported as inconclusive: 18.5 µM [inhibitor, single point]. In the case of COc1ccc(C2=NN(C(=O)c3ccncc3)C(c3ccccc3O)C2)cc1 (stereo not given), the Potency is reported as inconclusive: 5.22 µM [inhibitor, partial curve]. With COc1cccc(-c2noc(CCCC(=O)NC3CCCC3)n2)c1 the Potency was active: 2.33 µM. With O=c1[nH]nc(-c2ccc(F)cc2)cc1-c1ccccc1 the Potency was inconclusive: 10.4 µM [inhibitor, partial curve, poor fit]. For O=C(N/N=C/c1ccoc1)c1ccccc1O, the “activity change, negative = inhibition” value was inactive: 93.1%. For CCOC(=O)C1CCN(S(=O)(=O)c2ccc3[nH]c(=O)ccc3c2)CC1, the “activity change, negative = inhibition” value was inactive: 10.5%. In the case of COc1ccc(N(CC(=O)N2CCc3ccccc32)S(=O)(=O)c2c(C)nn(C)c2C)cc1, the Potency is reported as active: 8.28 µM. In the case of CCOC(=O)c1ccc(N2Cc3ccccc3C2=NC(=O)c2ccncc2)cc1, the Potency is reported as inconclusive: 18.5 µM [inhibitor, single point]. For CCSc1oc(-c2ccco2)nc1S(=O)(=O)c1ccc(C)cc1, the “activity change, negative = inhibition” value was inactive: 0%. In the case of COc1cc(/C=C2/CCc3ccccc3C2=O)cc(OC)c1OC, the Potency is reported as inconclusive: 13.1 µM [inhibitor, single point]. For COc1cccc([C@@H]2CC=C(C(=O)O)CN2S(=O)(=O)c2ccc(C)cc2)c1, the “activity change, negative = inhibition” value was inactive: 88%. In the case of Cc1cccc(NC(=O)Nc2ccncc2)c1, the Potency is reported as inconclusive: 0.657 µM [inhibitor, full curve, poor fit]. For COc1ccc(OC)c(S(=O)(=O)Nc2cccc(C(C)=O)c2)c1, the “activity change, negative = inhibition” value was inactive: 0%. With CC(C)(C)c1ccc(C(=O)OCCN2CCCCC2)cc1 the Potency was active: 5.86 µM. For CCOc1cc2[nH]c(=S)n(C3CCN(Cc4ccccc4)CC3)c(=O)c2cc1OCC, the Potency was inconclusive: 1.85 µM [inhibitor, single point]. With COC(=O)C1=C(c2ccc(-c3ccccc3)c(F)c2)C[C@@H]2CC[C@H]1N2C(=O)N1CCCCC1 the Potency was inconclusive: 8.28 µM [inhibitor, partial curve]. For Cc1ccc(OCc2nc(-c3ccc(-n4cccc4)cc3)no2)cc1C, the Potency was inconclusive: 5.22 µM [inhibitor, partial curve, poor fit]. With Cc1ccc(N2CCN(c3ccc(C)cc3)C(CC(=O)O)C2=O)cc1 (stereo not given) the Potency was inconclusive: 10.4 µM [inhibitor, single point]. For CCn1nc(C)c(NC(=O)/C=C/c2ccc(OC)c(COc3ccc(Br)cc3)c2)c1C, the Potency was inconclusive: 11.7 µM [inhibitor, single point]. In the case of CCOC(=O)c1sc2nc(C)cc(C)c2c1N, the Potency is reported as inconclusive: 3.7 µM [inhibitor, partial curve, poor fit]. For CCOc1ccccc1N1CCN(C(=O)c2cc3ccccc3cc2OC)CC1, the Potency was inconclusive: 10.4 µM [inhibitor, partial curve, poor fit]. In the case of COc1ccc(C(C)=O)cc1CSc1nc2ccccc2c(=O)n1-c1ccccc1C, the Potency is reported as active: 2.33 µM. With Cc1nn(-c2ccccc2)c(C)c1P(=O)(c1ccccc1)N(C)C (stereo not given) the Potency was inconclusive: 13.1 µM [inhibitor, partial curve]. For COc1cc(C#Cc2c(C=O)n(C)c3ccccc23)cc(OC)c1, the Potency was inconclusive: 14.7 µM [inhibitor, partial curve, poor fit]. For COc1ccc(C(CNC(=O)c2cccc3cccnc23)N(C)C)cc1 (stereo not given), the Potency was inconclusive: 9.28 µM [inhibitor, partial curve, poor fit]. For CCc1cccc(NC(=S)Nc2ccc(CN3CCOCC3)cc2)c1, the Potency was inconclusive: 0.586 µM [inhibitor, full curve, poor fit]. In the case of CCN1C(=O)c2ccc(C(=O)Nc3c(C)cc(C)cc3C)cc2C1=O, the Potency is reported as inconclusive: 1.04 µM [inhibitor, partial curve, poor fit]. For CCOC(=O)c1ccc(CNC(=O)CSc2nc(NC(=O)c3ccccc3)c3c(C)c(C)oc3n2)cc1, the Potency was inconclusive: 14.7 µM [inhibitor, partial curve, poor fit]. With CCOC(=O)C1=CC[C@@H](c2ccccc2Cl)N(S(=O)(=O)c2ccc(C)cc2)[C@H]1C(=O)OCC the Potency was inconclusive: 5.22 µM [inhibitor, partial curve, poor fit]. In the case of Cc1onc(-c2c(F)cccc2Cl)c1C(=O)OCC(=O)NCc1ccccc1, the Potency is reported as inconclusive: 10.4 µM [inhibitor, partial curve, poor fit]. In the case of CC(=O)c1ccc(S(=O)(=O)N(C)C(C)CCc2ccco2)cc1 (stereo not given), the “activity change, negative = inhibition” value is reported as inactive: -33.8%. For COc1cc(CCCN2C(=O)C(=O)NC[C@@H]2CC2CCCCC2)cc(OC)c1OC, the Potency was inconclusive: 18.5 µM [inhibitor, single point]. For Cc1cc(C(=O)COc2ccc(C#N)cc2)c(C)n1-c1ccc2c(c1)OCO2, the Potency was inconclusive: 9.28 µM [inhibitor, partial curve, poor fit]. For Cc1cc(-c2nn(-c3ccccc3F)cc2CN2CCCC(CO)C2)c(C)s1 (stereo not given), the Potency was active: 2.33 µM. For O=[N+]([O-])c1ccc2c(c1Nc1ccccc1)=NC1(CCCCC1)N=2, the Potency was inconclusive: 20.8 µM [inhibitor, partial curve, poor fit]. In the case of CCOC(=O)C1=C(C)OC(N)=C(C(=O)OCC)C1c1cccnc1 (stereo not given), the Potency is reported as inconclusive: 9.28 µM [inhibitor, single point]. In the case of Cc1cc(NC(=O)CCN2C(=O)C3C4CCC(C4)C3C2=O)cc(C)c1Br (stereo not given), the Potency is reported as active: 0.928 µM. With CCN1CCCc2cc(CN(CCN3CCOCC3)C(=O)Nc3ccc(C)c(C)c3)ccc21 the Potency was inconclusive: 10.4 µM [inhibitor, partial curve, poor fit]. With O=C(Nc1ccc(N2CCCC2)cc1)c1ccc([N+](=O)[O-])cc1Cl the “activity change, negative = inhibition” value was inactive: 14.7%. In the case of Cc1ccc(NC(=O)OCCN2CCN(S(=O)(=O)c3ccc(C)cc3)CCC2=O)cc1, the Potency is reported as inconclusive: 14.7 µM [inhibitor, single point]. For C/C(=N\NC(=O)c1cccnc1)c1cc2ccccc2o1, the Potency was inconclusive: 18.5 µM [inhibitor, single point]. In the case of O=C(Nc1nnc(C2CC2)s1)C1=NN(C2CCS(=O)(=O)C2)C(=O)CC1 (stereo not given), the Potency is reported as inconclusive: 3.7 µM [inhibitor, full curve, poor fit]. With O=C(Nc1cccc(-n2cnnn2)c1)c1cc(Cl)nc(Cl)c1 the Potency was active: 4.65 µM. In the case of CC(=O)Nc1ccc2[nH]ccc2c1, the “activity change, negative = inhibition” value is reported as inactive: 15.4%. With CC(C)(C)OC(=O)N1CCOCCOCCN(C(=O)OC(C)(C)C)CCOCC1 the Potency was inconclusive: 18.5 µM [inhibitor, single point]. For O=C(OC(C(=O)Nc1cccc(C(F)(F)F)c1)c1ccccc1)C1CCCCC1 (stereo not given), the Potency was active: 6.57 µM. With OCc1ccccn1 the “activity change, negative = inhibition” value was inactive: 12.7%. For O=C(NC1CCCCNC1=O)c1ccco1 (stereo not given), the “activity change, negative = inhibition” value was inactive: 21.7%. With CS(=O)(=O)c1cnc(-c2ccccc2)nc1Oc1ccc(F)cc1 the Potency was inconclusive: 4.15 µM [inhibitor, partial curve, poor fit]. With O=C(Nc1ccc(-c2csc(Nc3ccc(Cl)cc3)n2)cc1)c1cccc(C(F)(F)F)c1 the Potency was active: 10.4 µM. For Cc1cc(=O)oc2c(C)c(OC(C)C(=O)Nc3ccc(N4CCC(C)CC4)cc3)ccc12 (stereo not given), the Potency was active: 3.29 µM. For COc1ccc(-c2ncn(CCC#N)c2[N+](=O)[O-])cc1, the Potency was inconclusive: 13.1 µM [inhibitor, single point]. In the case of COCCN(C(=O)CNC(=O)c1ccco1)C(C(=O)NC1CCCCC1)c1cccnc1 (stereo not given), the “activity change, negative = inhibition” value is reported as inactive: 18.7%. With CCOc1ccc(C(=S)N2CCCC2)cc1 the Potency was inconclusive: 4.65 µM [inhibitor, partial curve].
